Experimental data: the supplement of paper PMC5949888
Most values lie at the floor of the assay. Slopes are relative: functional sequences can read slightly below zero.

System: Saccharomyces cerevisiae PS128 hsf1 delta, HSF1(1-493) fusion
Experiment: growth estimate (transactivation domain function in HSF1 fusion, heat-shock survival) (a.u. (slope of normalised read count over time)); higher = stronger growth at 37°C, i.e. more transactivation activity
Conditions: library: random library

Which growth estimate does the source give for REAVGRETTDPVEPAPPWKA here?
Its growth estimate is < -0.25.

AGSQEKDALTLREPAPHPAG was tested. Which growth estimate did it give?
Its growth estimate is < -0.25.

For AADGVQRYNVEGLHYLRSQN, which growth estimate is on record?
The growth estimate was < -0.25.

With VDDVRIV as the substance, how does the growth estimate read?
The growth estimate was < -0.25.

For VWLASMASGLGKNW, which growth estimate is on record?
The growth estimate was < -0.25.

Which growth estimate does the source give for VSKWMVWPPAKVWIKERAPQ here?
The growth estimate was < -0.25.

RDSGAIGYHLEYSARKEIRA was tested. Which growth estimate did it give?
The growth estimate was < -0.25.

PNTDLQRYSHGPSRIAATLY was tested. Which growth estimate did it give?
Its growth estimate is < -0.25.

PARRSSIYQITNVSRG was tested. Which growth estimate did it give?
Its growth estimate is < -0.25.

For RGWSIEVVWFVKSRRPSEK, which growth estimate is on record?
The growth estimate was < -0.25.

DVEGGFVEIDAVGLIEIRVC was tested. Which growth estimate did it give?
The growth estimate was < -0.25.

For EPRD, which growth estimate is on record?
The growth estimate was < -0.25.

How did the growth estimate turn out when VFMRKVTHGGQWLRLI was run?
Its growth estimate is < -0.25.

Which growth estimate does the source give for LLTPAKGAKADDGGTPRHVH here?
The growth estimate was < -0.25.

For STERTSMIVTLIYHGFLAEN, which growth estimate is on record?
The growth estimate was < -0.25.

For LPVTTRRHARVTTLTTYLVG, which growth estimate is on record?
The growth estimate was < -0.25.

For KPSSGEELWVHMHASCRRPI, which growth estimate is on record?
The growth estimate was < -0.25.

PRGSTIVVTIEVTQKSVVSE was tested. Which growth estimate did it give?
The growth estimate was < -0.25.

LNREGNAEYVTELQERAMVL was tested. Which growth estimate did it give?
The growth estimate was < -0.25.

LTFQCR was tested. Which growth estimate did it give?
Its growth estimate is < -0.25.

For SLIRQSRSCLYAYLRAEGRA, which growth estimate is on record?
Its growth estimate is < -0.25.

How did the growth estimate turn out when TCRQGTWGRSAWGDGLRRPV was run?
Its growth estimate is < -0.25.

For DILYSALVRSLDPGYRYIRP, which growth estimate is on record?
Its growth estimate is < -0.25.

NLPPLDIIDGNVRRAPPNAV was tested. Which growth estimate did it give?
Its growth estimate is < -0.25.

LCLLVRCSDIRRRLLAIR was tested. Which growth estimate did it give?
Its growth estimate is -0.229.

Which growth estimate does the source give for LCRRPRK here?
The growth estimate was < -0.25.

Which growth estimate does the source give for VTAHTTVVIS here?
The growth estimate was < -0.25.

How did the growth estimate turn out when NYSLATLAMEGSFSVPCWLR was run?
Its growth estimate is < -0.25.

With VLWVLCSS as the substance, how does the growth estimate read?
The growth estimate was < -0.25.

LLSIGSPITRREWSEGGRGH was tested. Which growth estimate did it give?
Its growth estimate is < -0.25.

For SIEGLAAASPRGTIRSKVC, which growth estimate is on record?
The growth estimate was < -0.25.

DRVIVWA was tested. Which growth estimate did it give?
The growth estimate was < -0.25.

Which growth estimate does the source give for RHGFPALAATIQVVQHRYGQ here?
Its growth estimate is < -0.25.

With GPQFIVAYGRSPGQKPHTEA as the substance, how does the growth estimate read?
Its growth estimate is < -0.25.

VGVCACAL was tested. Which growth estimate did it give?
The growth estimate was < -0.25.

Which growth estimate does the source give for NSYVRGECTWVIVRCANNGN here?
Its growth estimate is < -0.25.

For IWRHTIRPGVVNALEFLSAS, which growth estimate is on record?
Its growth estimate is < -0.25.

Which growth estimate does the source give for YTPGPDISSTARDENNTVLS here?
The growth estimate was < -0.25.

For HDLACCLKPGLVVRIHAVYT, which growth estimate is on record?
Its growth estimate is < -0.25.

For YILQILWLVAIIFT, which growth estimate is on record?
The growth estimate was < -0.25.

With DGSGLIDLNRPRAFRITYHS as the substance, how does the growth estimate read?
Its growth estimate is < -0.25.

Which growth estimate does the source give for EVHCLPTIHGIFFIRRYFSA here?
The growth estimate was < -0.25.

For VNSIESTGNT, which growth estimate is on record?
Its growth estimate is < -0.25.

How did the growth estimate turn out when VWYI was run?
Its growth estimate is < -0.25.

Which growth estimate does the source give for QTASAVKGSWPIPPQSFFHP here?
The growth estimate was < -0.25.

How did the growth estimate turn out when PNRVPYCPRIRMVPSSRSEV was run?
Its growth estimate is < -0.25.

For GDYGSVRES, which growth estimate is on record?
The growth estimate was < -0.25.

CARQPHLNYTDGGRVTIGKD was tested. Which growth estimate did it give?
Its growth estimate is < -0.25.

Which growth estimate does the source give for HVYTRMTQTIGGLVAECGRA here?
The growth estimate was < -0.25.

PGPRGVTSHDRLIGKYTPQL was tested. Which growth estimate did it give?
Its growth estimate is < -0.25.

How did the growth estimate turn out when LVTCHIHCAYGEAAGWHGYH was run?
Its growth estimate is < -0.25.

Which growth estimate does the source give for LGRVDMGGSRNLFS here?
The growth estimate was < -0.25.

With ELQCQYTGSHDGRVDKAVVG as the substance, how does the growth estimate read?
Its growth estimate is < -0.25.

LFHCFETMLVILWS was tested. Which growth estimate did it give?
The growth estimate was < -0.25.

How did the growth estimate turn out when ERASTAGDNLHI was run?
The growth estimate was < -0.25.

With GVCCSRARTVGDLGRISLKG as the substance, how does the growth estimate read?
The growth estimate was < -0.25.

TFV was tested. Which growth estimate did it give?
Its growth estimate is < -0.25.

Which growth estimate does the source give for AWRVTVPGGKTFDIA here?
The growth estimate was < -0.25.

Which growth estimate does the source give for PRDEPGRTAFSPRSPTQPGG here?
The growth estimate was < -0.25.

With ERSMGRPRENRQYENINRQH as the substance, how does the growth estimate read?
Its growth estimate is -0.0501.

SQSDGVRMDKGRSASAIIGR was tested. Which growth estimate did it give?
The growth estimate was < -0.25.

How did the growth estimate turn out when IRSRRSRVCSASEVWNRNRP was run?
Its growth estimate is < -0.25.

FANRPGTLTRVDGQVTTR was tested. Which growth estimate did it give?
Its growth estimate is -0.228.

With LRCVFSENRDR as the substance, how does the growth estimate read?
Its growth estimate is < -0.25.

Which growth estimate does the source give for MWRKILDEERVLPESCSYPG here?
The growth estimate was < -0.25.

EMGFRTAGAMRTQSTQRNPD was tested. Which growth estimate did it give?
Its growth estimate is < -0.25.

For LTIYRY, which growth estimate is on record?
Its growth estimate is < -0.25.

GAVVHSSSNKRKGLV was tested. Which growth estimate did it give?
Its growth estimate is < -0.25.

For ADASLVQGL, which growth estimate is on record?
Its growth estimate is < -0.25.

QLGLIATIKGCSLSIGKVWG was tested. Which growth estimate did it give?
Its growth estimate is < -0.25.

Which growth estimate does the source give for NCC here?
The growth estimate was < -0.25.

Which growth estimate does the source give for HHGVLLGHKGLYCEGLHSTN here?
Its growth estimate is < -0.25.

Which growth estimate does the source give for QVLFTFQLKGLRAFGDRSWE here?
The growth estimate was < -0.25.

With HEIERGY as the substance, how does the growth estimate read?
Its growth estimate is < -0.25.

How did the growth estimate turn out when SRVICSPAS was run?
Its growth estimate is < -0.25.

Which growth estimate does the source give for VNH here?
Its growth estimate is < -0.25.

Which growth estimate does the source give for SLLIWFPSVWGDYSDLGPPD here?
The growth estimate was < -0.25.

Which growth estimate does the source give for HRTLFLDTCVRCSYRRPPNQ here?
The growth estimate was < -0.25.

FNDAALLYITGQSNTCHLET was tested. Which growth estimate did it give?
Its growth estimate is < -0.25.

WPVIIEKERVHVGFRRICRA was tested. Which growth estimate did it give?
The growth estimate was < -0.25.

Which growth estimate does the source give for ICASMHLFAY here?
The growth estimate was < -0.25.

Which growth estimate does the source give for RSTAVIICCSMKIRIRGDQP here?
Its growth estimate is < -0.25.

With DPKSSRHGFRSVSFCTCVDS as the substance, how does the growth estimate read?
Its growth estimate is < -0.25.

With PKIRRTRVLHCRLASKPVPY as the substance, how does the growth estimate read?
Its growth estimate is < -0.25.

LLQEAGAFTLCPVSGGPTNQ was tested. Which growth estimate did it give?
Its growth estimate is < -0.25.

With VMARIRWSTHGGPKGNCCPG as the substance, how does the growth estimate read?
The growth estimate was -0.229.

How did the growth estimate turn out when IFLR was run?
The growth estimate was < -0.25.

For YPDRFNC, which growth estimate is on record?
Its growth estimate is < -0.25.

How did the growth estimate turn out when PDMSSVNNVLRLRLPLPTNI was run?
Its growth estimate is < -0.25.

ASLVPVETAVSFAP was tested. Which growth estimate did it give?
The growth estimate was < -0.25.

For YGQEDIPTPYRISEVGAFYA, which growth estimate is on record?
The growth estimate was < -0.25.

Which growth estimate does the source give for AKLRSVHGWTENVCVPPRS here?
The growth estimate was < -0.25.

Which growth estimate does the source give for PCTVQGR here?
Its growth estimate is < -0.25.

With YDPRLVSYVQPRV as the substance, how does the growth estimate read?
The growth estimate was < -0.25.

FHRCHNELFLSHA was tested. Which growth estimate did it give?
The growth estimate was < -0.25.

GSLVLSPVPQGPATG was tested. Which growth estimate did it give?
The growth estimate was < -0.25.

SSVQVYLVRASGHAPG was tested. Which growth estimate did it give?
Its growth estimate is -0.246.

How did the growth estimate turn out when GLRRLLEQKQ was run?
Its growth estimate is -0.231.
